Experimental data reported in the supplement of paper PMC11060735.
Values joined by “and” are separate entries in the source; they are usually repeats but may differ in a detail not shown here. Identical values can stand only once. Counter-ions that a name gives are not always drawn. ± gives the standard deviation of the averaged measurements. Over roughly 1,800 compounds, “GFP- (p16Ink4a-) cell count relative to negative-control wells” has its median near 0.99; the lowest 2% begin near 0.5. The list shows a part of the results.

The molecules below were run on mouse p16Ink4a+/- lung fibroblasts (INKBRITE, bleomycin-injured) (assay: GFP- (p16Ink4a-) cell count relative to negative-control wells (fold of vehicle); higher = more p16Ink4a- cells surviving). Conditions: 1 µM; 3 days.

SMILES | GFP-
CC(C)[N+]1(C)C2CCC1CC(OC(=O)C(CO)c1ccccc1)C2 (stereo unspecified) [Ipratropium Bromide] | 1.03
Cn1cc(/C=C2/C(=O)Nc3cccnc32)c2ccccc21 | 1.18
CC[C@@H](CO)NCCN[C@@H](CC)CO [Ethambutol] | 0.975
O=c1c(O)c(-c2ccc(O)cc2)oc2cc(O)cc(O)c12 [Kaempherol] | 0.955
CCCCc1oc2ccccc2c1C(=O)c1cc(I)c(OCCN(CC)CC)c(I)c1 [Amiodarone] | 0.9
COc1nc(C)nc(Cl)c1NC1=NCCN1 [Moxonidine, Moxonidine Hydrochloride] | 1.04
COc1ccc(Cl)cc1C(=O)NCCc1ccc(S(=O)(=O)NC(=O)NC2CCCCC2)cc1 [Glibenclamide, Glyburide] | 0.901
Cc1cc2c(F)c(Oc3ncnn4cc(OC[C@@H](C)O)c(C)c34)ccc2[nH]1 [Brivanib] | 1.09
CC(C)(Cc1ccc2ccccc2c1)NC[C@@H](O)COc1cccc(Cl)c1C#N | 1.11
S=C=Nc1cccc(NC(=S)NCCCCNC(=S)Nc2cccc(N=C=S)c2)c1 | 0.87
O=C(O)/C(Cc1ccccc1[N+](=O)[O-])=N/Nc1nc(-c2ccc(Cl)c(Cl)c2)cs1 | 1.11
O=c1cc(-c2ccccc2)oc2cc(O)cc(O)c12 [Chrysin] | 0.996
O=c1cc(-c2cccc3c2Sc2ccccc2S3)oc(N2CCOCC2)c1 [ATM Kinase Inhibitor] | 0.911
C[C@@H](Oc1cc(-c2cnn(C3CCNCC3)c2)cnc1N)c1c(Cl)ccc(F)c1Cl [Crizotinib] | 0.915
CC[C@@H]1C(=O)N(C)c2cnc(Nc3ccc(C(=O)N[C@H]4CC[C@H](N5CCN(CC6CC6)CC5)CC4)cc3OC)nc2N1C(C)C [Volasertib] | 0.773
CC(C(=O)O)c1ccc2c(c1)[nH]c1ccc(Cl)cc12 (stereo unspecified) [Carprofen] | 1.03
CNC(=O)[C@H](Cc1c[nH]c2ccccc12)NC(=O)[C@@H](CC(=O)NO)CC(C)C | 1.15
N#C/C(=C(/N)Sc1ccc(N)cc1)c1ccccc1C(F)(F)F | 0.961
N=C(N)c1ccc(N=NNc2ccc(C(=N)N)cc2)cc1 [Diminazene] | 0.868
CN1CCN(c2nc(C3=C(c4c[nH]c5ccccc45)C(=O)NC3=O)c3ccccc3n2)CC1 [Sotrastaurin] | 0.861
NC(=O)c1cccc(N)c1 [3-aminobenzamide] | 1.08 ± 0.15
CC(C)c1cc(-c2ccc(F)c3ccccc23)nc(N)n1 | 0.927
CC[C@H](Nc1ncnc2[nH]cnc12)c1nc2cccc(F)c2c(=O)n1-c1ccccc1 [Idelalisib] | 0.99
CCCCCCCCCCCC[N+](C)(C)CCOc1ccccc1 [Domiphen] | 0.836
COc1cc2ncnc(Oc3cccc(NC(=O)Nc4cc(C(C)(C)C(F)(F)F)on4)c3)c2cc1OC | 1.04
CC(C)(C)c1nc(-c2cccc(NS(=O)(=O)c3c(F)cccc3F)c2F)c(-c2ccnc(N)n2)s1 [Dabrafenib] | 0.448

SMILES | GFP-
Cc1c(NC(=O)OC[C@@H]2COCCN2)cn2ncnc(Nc3ccc4c(cnn4Cc4cccc(F)c4)c3)c12 | 0.927
Cc1nc(O)c(C#N)cc1-c1ccncc1 [Milrinone] | 1.22
CC1=NN(c2ccccc2)C(=O)C1 [3-methyl-1-phenyl-2-pyrazolin-5-one (mci-186), Edaravone] | 1.06
C=C1C(=O)O[C@@H]2/C=C(\C)CC/C=C(\C)CC[C@@H]12 [Costunolide] | 1.1
CN(C)CC/C=C1/c2ccccc2Sc2ccc(Cl)cc21 [Chlorprothixene] | 0.99
Cn1c(Nc2ccc(C(F)(F)F)cc2)nc2cc(Oc3ccnc(-c4nc(C(F)(F)F)c[nH]4)c3)ccc21 | 0.691
O=c1ccn([C@@H]2O[C@H](CO)[C@@H](O)[C@H]2O)c(=O)[nH]1 [Uridine] | 0.961
OC[C@@H](O)[C@@H](O)[C@@H](O)CO [Ribitol] | 0.997
CCN(CC)CCCC(C)Nc1nc(C)cc(Nc2ccc3nc(C)cc(N)c3c2)n1 (stereo unspecified) | 0.971
Cc1cc(OCCCS(C)(=O)=O)cc(C)c1-c1cccc(COc2ccc3c(c2)OC[C@H]3CC(=O)O)c1 | 1.12
C1=C/COCc2cc(ccc2OCCN2CCCC2)Nc2nccc(n2)-c2cccc(c2)COC/1 [Pacritinib] | 0.933 ± 0.029
COCC(=O)NC/C=C/c1ccc2ncnc(Nc3ccc(Oc4ccc(C)nc4)c(C)c3)c2c1 | 1.06
Cc1c(C(=O)N2CCOc3ccc(-c4ccc(N)nc4)cc3C2)ccc(S(C)(=O)=O)c1F | 0.901
CCc1c(C(=O)NCCc2ccc(N3CCCCC3)cc2)[nH]c2ccc(Cl)cc12 | 0.784
O=C1CCC[C@@H]2[C@H]3CCC[N+]4([O-])CCC[C@@H](CN12)[C@@H]34 (stereo partly specified) [Oxymatrine] | 1.08
Cc1ccc(C(=O)Nc2ccc(CN3CCN(C)CC3)c(C(F)(F)F)c2)cc1C#Cc1cnc2cccnn12 [Ponatinib] | 0.714
CC(=O)c1cc([N+](=O)[O-])c(Sc2cccc(Cl)c2Cl)s1 | 1.02
O=C(NCCO[N+](=O)[O-])c1cccnc1 [Nicorandil] | 1.14
NC(=O)C(c1ccccc1)(c1ccccc1)[C@@H]1CCN(CCc2ccc3c(c2)CCO3)C1 [Darifenacin] | 1.18
Cc1[nH]c2ccccc2c1CCNC(=O)c1cccs1 [N-[2-(2-methyl-1H-indol-3-yl)ethyl]thiophene-2-carboxamide] | 1.11
Cc1cc(/C=C/C#N)cc(C)c1Nc1ccnc(Nc2ccc(C#N)cc2)n1 [Rilpivirine] | 1.12
COc1c(N2CCNC(C)C2)c(F)cc2c(=O)c(C(=O)O)cn(C3CC3)c12 (stereo unspecified) [Gatifloxacin] | 1.05
C=CCN1CCCC1CNC(=O)c1cc2nn[nH]c2cc1OC (stereo unspecified) [Alizapride] | 1.02
COc1ccccc1S(=O)(=O)Nc1ccc2c(c1)CN(C)C(=O)N2 | 1.15 ± 0.081
O=C(NC[C@H](O)CO)c1ccncc1Nc1ccc(I)cc1F [Pimasertib] | 1.03
c1cn2cc(-c3ccc4c[nH]nc4c3)nc(Nc3ccc(N4CCOCC4)cc3)c2n1 | 0.938

SMILES | GFP-
O=c1c(O)c(-c2ccc(O)c(O)c2)oc2cc(O)ccc12 [Fisetin] | 1.01
C[C@@H](NCCc1ccc(O)cc1)[C@@H](O)c1ccc(O)cc1 [Ritodrine HCl] | 1.1
CO[C@H]1/C=C/O[C@@]2(C)Oc3c(C)c(O)c4c(O)c(c(/C=N/N5CCN(C6CCCC6)CC5)c(O)c4c3C2=O)NC(=O)/C(C)=C\C=C\[C@H](C)[C@H](O)[C@@H](C)[C@@H](O)[C@@H](C)[C@H](OC(C)=O)[C@@H]1C [Rifapentine] | 0.995
CCN1CCN(Cc2ccc(Nc3ncc(F)c(-c4cc(F)c5nc(C)n(C(C)C)c5c4)n3)nc2)CC1 | 0.983
CC[C@]1(O)C[C@@H]2CN(CCc3c([nH]c4ccccc34)[C@@](C(=O)OC)(c3cc4c(cc3OC)N(C)[C@@H]3C45CCN4CC=C[C@](CC)([C@H]45)[C@@H](OC(C)=O)[C@]3(O)C(=O)OC)C2)C1 (stereo partly specified) [Vinblastine] | 0.635
CC[C@H](C)C(=O)O[C@H]1CCC=C2C=C[C@H](C)[C@H](CC[C@@H]3C[C@@H](O)CC(=O)O3)[C@H]21 [Mevastatin] | 0.766
NC(=O)Cc1cccc(C(=O)c2ccccc2)c1N [Nepafenac] | 1.08
Cc1onc(-c2c(Cl)cccc2Cl)c1C(=O)N[C@@H]1C(=O)N2[C@@H]1SC(C)(C)[C@@H]2C(=O)O [Dicloxacillin] | 0.966
C=C1CC[C@H](O)C/C1=C/C=C1\CCC[C@]2(C)[C@@H]([C@H](C)/C=C/[C@H](C)C(C)C)CC[C@@H]12 [Ergocalciferol] | 1.06
Cn1cnc2c(F)c(Nc3ccc(Br)cc3Cl)c(C(=O)NOCCO)cc21 [Selumetinib] | 0.838
O=C(O)c1cc(N=Nc2ccc(S(=O)(=O)Nc3ccccn3)cc2)ccc1O [Sulfasalazine] | 1.15
CCCCC(=O)N(Cc1ccc(-c2ccccc2-c2nn[nH]n2)cc1)[C@H](C(=O)O)C(C)C [Valsartan] | 1.02
O=C(c1ccc(C(=O)N2CCC(N3CCCC3)CC2)c(Nc2ccccc2)c1)N1CCC(N2CCCC2)CC1 | 0.967 ± 0.073
Nc1ncn([C@H]2C[C@H](O)[C@@H](CO)O2)c(=O)n1 [Decitabine] | 0.814 ± 0.15
CN(C)C(=O)COC(=O)Cc1ccc(OC(=O)c2ccc(NC(=N)N)cc2)cc1 [Camostat] | 1.14
CC(C)CC(N)=O [Isovaleramide] | 0.963
Cc1[nH]c2ccccc2c1CCNCc1ccc(/C=C/C(=O)NO)cc1 [Panobinostat] | 0.50294 ± 0.0002
COCCCOc1cc(C[C@@H](C[C@H](N)[C@@H](O)C[C@H](C(=O)NCC(C)(C)C(N)=O)C(C)C)C(C)C)ccc1OC [Aliskiren] | 1.09
CC[C@H](C)[C@H]1O[C@]2(CC[C@@H]1C)C[C@@H]1C[C@@H](C/C=C(\C)[C@@H](O[C@H]3C[C@H](OC)[C@@H](O[C@H]4C[C@H](OC)[C@@H](O)[C@H](C)O4)[C@H](C)O3)[C@@H](C)/C=C/C=C3\CO[C@@H]4[C@H](O)C(C)=C[C@@H](C(=O)O1)[C@]34O)O2 [Ivermectin] | 1.2
CN(C)CC(c1ccc(O)cc1)C1(O)CCCCC1 (stereo unspecified) [Desvenlafaxine] | 0.752 and 0.898
CC(NC(=O)c1ccccc1/N=C/c1c(O)ccc2ccccc12)c1ccccc1 (stereo unspecified) [Sirtinol] | 1.09 ± 0.21
O=c1n(CCCN2CCN(c3cccc(Cl)c3)CC2)nc2ccccn12 [Trazodone] | 0.97
CN(c1ncccc1CNc1nc(Nc2ccc3c(c2)CC(=O)N3)ncc1C(F)(F)F)S(C)(=O)=O | 0.683 and 0.793 and 0.91
Nc1cc(F)ccc1NC(=O)/C=C/c1cnn(C/C=C/c2ccccc2)c1 | 0.781 ± 0.051
